# Screen size: about 43,000 compounds; about 830 (1.9%) were called active. Listed are the inconclusive results; actives and inactives stand elsewhere. How the source made its calls: active means clear falling dose curves in both reporters; inconclusive means both reporters move, but less clearly or upward; inactive means either reporter flat; the % is the NLuc reporter signal.
# Assay: Cell-based coincidence reporter assay to measure PMP22 gene transcription in S16 Pmp22-F2sN cells - Primary screen
# Details: S16 Pmp22-F2sN Schwann cells (luciferase reporters placed in the Pmp22 gene), FLuc/NLuc coincidence luminescence, 24 h
# Source text: Assay Provider: Jim Inglese Ph.D. National Center for Advancing Translational Science, National Institutes of Health, Rockville, MD CMT is a heterogeneous group of neurological disorders that affect approximately 1 in 2,500 people. In particular, the most common form of CMT, CMT1A is genetically linked to the duplication of the PMP22 gene which leads to Schwann cell overexpression, thus manifesting itself as a typical case of dose-sensitive diseases. To identify small molecule compounds that can mediate the expression of PMP22 we developed a phenotypic assay screening strategy by utilizing genome editing techniques to construct Schwann cell lines containing novel reporter technology to monitor the transcriptional or translational regulation of PMP22. For high sensitivity we use a bioluminescent reporter system embedded in the 3' UTR of the PMP22 gene (S16(c9) Pmp22-F2sN) to identify compounds that inhibit gene expression. […] We can further discriminate the effect of all transcriptionally active molecules on PMP22 translation or stability with an assay that incorporates a short NLuc peptide (HiBiT) at the C-terminus of expressed PMP22 (S16(f8) PMP22-HiBiT) allowing alpha complementation and luminescence detection of membrane-associated PMP22 protein. […] Miniaturization of these assays to 1536-well plate format for quantitative high throughput screening (qHTS) yielded rich data sets immediately from the qHTS assay (S16(c9) Pmp22-F2sN), when compared with data from a cell viability assay (Cell TiterGlo) to identify compounds that decreased the output signals through cellular toxicity to streamline the selection process of actives for subsequent characterization using the HiBiT assay (S16(f8) PMP22-HiBiT).
# Cell-based coincidence reporter assay to measure PMP22 gene transcription in S16 Pmp22-F2sN cells PROTOCOL TABLE (format as described by Inglese J, Shamu CE and Guy RK. 2007) SEQUENCE No. (e.g., 1, 2, 3, etc.); […] […] FLuc luminescence measured using CCD-based camera (Viewlux). […] NLuc luminescence measured using CCD-based camera (Viewlux). […]
# Potency means the concentration at half of the fitted maximal effect.
row,Structure (SMILES),Potency
1,CCCCOc1ccccc1C(=O)NCC1(N2CCOCC2)CCCCC1,inconclusive: 24.1 µM
2,O=C(NCC1(N2CCOCC2)CCCCC1)c1ccc(Cl)cc1,inconclusive: 17.7 µM
3,COc1ccccc1C(=O)NCC1(N2CCOCC2)CCCCC1,inconclusive: 39.8 µM

# — PubChem BioAssay AID1508649 (National Center for Advancing Translational Sciences (NCATS), 2021)
